Source: the supplement of paper PMC10663445
Counter-ions that a name gives are not always drawn. Some of the results follow. Single values are uncertain, as repeats are few or missing.

Test system: hsa-miR-132-3p
Assay: miR-132-3p level in NGN2-iNs after compound treatment (TMM-normalised, ComBat batch-corrected) (batch-corrected normalised expression (arbitrary units)); higher = higher miR-132-3p expression
Details: 10 µM; 24 h; human iPSC-derived NGN2 neurons (BR43)

SMILES | miR-132-3p level in NGN2-iNs
O=c1c(O)c(-c2ccc(O)c(O)c2)oc2cc(O)ccc12 [Fisetin] | 0.134
COc1cc2ncnc(Oc3cccc(NC(=O)Nc4cc(C(C)(C)C(F)(F)F)on4)c3)c2cc1OC [Agerafenib (RXDX-105)] | -0.512
COc1ccc(-c2nc3cc(C4=NNC(=O)CC4C)ccc3[nH]2)cc1 (stereo not drawn) [Pimobendan] | 0.0478
Cc1ccc(S(=O)(=O)n2c(N)nc3ccccc32)cc1 [Nodinitib-1] | 1.74
NC(=O)c1ncn([C@@H]2O[C@H](CO)[C@@H](O)[C@H]2O)n1 [Ribavirin] | 1.78
CCOC(=O)[C@H](CCc1ccccc1)N[C@@H](C)C(=O)N1[C@H](C(=O)O)C[C@@H]2CCC[C@@H]21 [Ramipril] | -0.222
CCc1cncnc1N1CCN(Cc2nc3ccc(C(F)(F)F)cc3[nH]2)CC1 | -2.37
CC1=C(C(=O)OC(C)C)C(c2cccc([N+](=O)[O-])c2)C(C(=O)OC2CN(C(c3ccccc3)c3ccccc3)C2)=C(N)N1 (stereo not drawn) [Azelnidipine] | 0.358
Cc1cc(C2CCCCC2)n(O)c(=O)c1 [Ciclopirox] | -0.718
Cc1cc(C2CCCCC2)n(O)c(=O)c1 [Ciclopirox ethanolamine] | 1.58
COc1cc(C(=O)NS(=O)(=O)c2ccccc2C)ccc1Cc1cn(C)c2ccc(NC(=O)OC3CCCC3)cc12 [Zafirlukast] | 0.601
CN[C@H]1CN(c2ccc3c(=O)c(C(=O)O)cn(-c4nccs4)c3n2)C[C@@H]1OC [Voreloxin (SNS-595) hydrochloride] | 0.707
CN1C(C(=O)Nc2ccccn2)=C(O)c2sccc2S1(=O)=O [Tenoxicam] | -0.447
N#Cc1ccc2[nH]cc(CCCCN3CCN(c4ccc5oc(C(N)=O)cc5c4)CC3)c2c1 [Vilazodone HCl] | -0.101
CCc1nc(-c2cccc(C)c2)c(-c2ccnc(NC(=O)c3ccccc3)c2)s1 | -0.676
Cc1cccc(C)c1NC(=O)C1CCCCN1C (stereo not drawn) [Mepivacaine HCl] | -2.11
Cc1c(C(N)=O)cc([N+](=O)[O-])cc1[N+](=O)[O-] [Dinitolmide] | 1.22
CN(C)CCC=C1c2ccccc2CCc2ccccc21 [Amitriptyline HCl] | 0.426
Cc1ccnc2c1NC(=O)c1cccnc1N2C1CC1 [Nevirapine] | -0.203

SMILES | miR-132-3p level in NGN2-iNs
Cc1[nH]c(=O)c(C#N)cc1-c1ccncc1 [Milrinone] | 1.2
COc1cc2c(cc1OC)CN(CCc1ccc(NC(=O)c3cc(OC)c(OC)cc3NC(=O)c3cnc4ccccc4c3)cc1)CC2 [Tariquidar (XR9576)] | 0.0991
COc1cc(Cc2cnc(N)nc2N)cc(OC)c1OC [Trimethoprim] | 0.237
N#CC(=Cc1ccc(O)c(O)c1)C(=O)NCc1ccccc1 [AG-490 (Tyrphostin B42)] | 0.0738
CC1(COc2ccc3c(c2)ncn3-c2ccc3cccc(N4CCC(N)CC4)c3n2)COC1 | -0.175
C[C@@H](Oc1cc(-n2cnc3ccc(CN4CCN(C)CC4)cc32)sc1C(N)=O)c1ccccc1C(F)(F)F | -0.461
CC(C)(C)C(=O)OCOP(=O)(COCCn1cnc2c(N)ncnc21)OCOC(=O)C(C)(C)C [Adefovir Dipivoxil] | -0.625
COc1cc(OC)c(C(=O)CCCN2CCCC2)c(OC)c1 [Buflomedil HCl] | -0.516
O=c1ccc2ccc(O)c(O)c2o1 [Daphnetin] | 0.003
O=C(O)CC[C@H]1CC[C@@](c2cc(F)ccc2F)(S(=O)(=O)c2ccc(Cl)cc2)CC1 | -0.0434
Nc1nc(N)c2nc(-c3cccc(O)c3)cnc2n1 | -1.13
CN1CCC(=C2c3ccccc3CC(=O)c3sccc32)CC1 [Ketotifen Fumarate] | 0.503
COc1ccccc1N1CCN(CC(O)COc2cccc3ccccc23)CC1 (stereo not drawn) [Naftopidil] | -0.899
COc1ccccc1N1CCN(CC(O)COc2cccc3ccccc23)CC1 (stereo not drawn) [Naftopidil DiHCl] | -0.265
CC(C)(Sc1cc(C(C)(C)C)c(O)c(C(C)(C)C)c1)Sc1cc(C(C)(C)C)c(O)c(C(C)(C)C)c1 [Probucol] | -1.85
Nc1c(Br)cc(Br)cc1CN[C@H]1CC[C@H](O)CC1 [Ambroxol HCl] | 0.847
Cn1ccnc1S [Methimazole] | 0.74
CS(=O)(=O)CCNCc1ccc(-c2ccc3ncnc(Nc4ccc(OCc5cccc(F)c5)c(Cl)c4)c3c2)o1 | -0.466
C=CC(=O)Nc1cccc(Nc2nc(Nc3ccc(N4CCN(C(C)=O)CC4)cc3OC)ncc2C(F)(F)F)c1 [Rociletinib (CO-1686)] | 1.19

3 neighbouring records out of the list so far, quoted:
SMILES | miR-132-3p level in NGN2-iNs
Nc1nc(N)c2nc(-c3cccc(O)c3)cnc2n1 | -1.13
CN1CCC(=C2c3ccccc3CC(=O)c3sccc32)CC1 [Ketotifen Fumarate] | 0.503
COc1ccccc1N1CCN(CC(O)COc2cccc3ccccc23)CC1 (stereo not drawn) [Naftopidil] | -0.899
